Test results: US20160159919A1
These are yes or no findings as the source states them, for the method shown. Some entries that bind do so weakly or less than the wild type.

Sequences of proteins named here, by UniProt entry; tags and fusion partners are left off. A change or cut given only in a name is not applied to a line headed by its entry.
UniProt O14944: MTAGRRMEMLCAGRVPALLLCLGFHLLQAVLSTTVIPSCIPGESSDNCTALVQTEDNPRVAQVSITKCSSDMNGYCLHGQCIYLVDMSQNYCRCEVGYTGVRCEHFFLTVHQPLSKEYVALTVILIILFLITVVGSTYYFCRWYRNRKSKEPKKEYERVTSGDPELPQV

How the values were obtained:
[1] = molecular target: Human EREG (Biacore analyte) (human) (UniProt O14944); assay: SPR (Biacore), FIG. 3
[2] = molecular target: Human EREG (Biacore analyte) (human) (UniProt O14944); assay: SPR (Biacore T100, Reference Example 24): antibody captured by Protein A, human EREG as analyte; bar = KD of the antibody / KD of chimeric EP27
[3] = molecular target: Human EREG (Biacore analyte) (human) (UniProt O14944); assay: SPR (Biacore T100, Reference Example 24): antibody captured by Protein A, human EREG as analyte; bar = KD of the antibody / KD of chimeric EP27 (cH-G1/cL-k)
[4] = molecular target: cynomolgus EREG (Biacore analyte) (cynomolgus monkey); assay: SPR (Biacore T100, Reference Example 24): antibody captured by Protein A, cynomolgus and human EREG as analytes; bar = KD for monkey Epiregulin / KD for human Epiregulin
[5] = molecular target: cynomolgus EREG (Biacore analyte) (cynomolgus monkey); assay: SPR (Biacore), FIG. 4

Binder	binding [1]	binding [2]	binding [3]	binding [4]	binding [5]
H111-G1d/LB-k (antibody, human IgG1, kappa, V domains shown) VH: QDQLVQSGAEVKKPGASVKVSCKASGFNIKDTYIQWVRQAPGQGLEWMGRIDPLRGNTKYREKFEGRVTITADTSTNTAYMELSSLRSEDTAVYYCVRSGTLFDFWGQGTLVTVSS VL: DIQMTQSPSSLSASVGDRVTITCKASQDIHKYIAWYQQKPGQAPRLLIQYTSTLQPGVPSRFSGSGSGTDYTFTISSLQPEDIATYYCLQYDNLRTFGGGTKVEIKR	binds	binds	binds		
H121-G1d/LB-k (antibody, human IgG1, kappa, V domains shown) VH: QDQLVQSGAEVKKPGASVKVSCKASGFNIKDTYIQWVRQAPGQGLEWMGRIDPLRGNTKYRERFEGRVTITADTSTNTAYMELSSLRSEDTAVYYCVRSGTLFDFWGQGTLVTVSS VL: DIQMTQSPSSLSASVGDRVTITCKASQDIHKYIAWYQQKPGQAPRLLIQYTSTLQPGVPSRFSGSGSGTDYTFTISSLQPEDIATYYCLQYDNLRTFGGGTKVEIKR	binds	binds	binds		
H123-G1d/LB-k (antibody, human IgG1, kappa, V domains shown) VH: QDQLVQSGAEVKKPGASVKVSCKASGFNIKDTYIQWVRQAPGQGLEWMGRIDPLRGNTKYREKFERRVTITADTSTNTAYMELSSLRSEDTAVYYCVRSGTLFDFWGQGTLVTVSS VL: DIQMTQSPSSLSASVGDRVTITCKASQDIHKYIAWYQQKPGQAPRLLIQYTSTLQPGVPSRFSGSGSGTDYTFTISSLQPEDIATYYCLQYDNLRTFGGGTKVEIKR	binds	binds	binds		
H124-G1d/LB-k (antibody, human IgG1, kappa, V domains shown) VH: QDQLVQSGAEVKKPGASVKVSCKASGFNIKDTRIQWVRQAPGQGLEWMGRIDPLRGNTKYREKFEGRVTITADTSTNTAYMELSSLRSEDTAVYYCVRSGTLFDFWGQGTLVTVSS VL: DIQMTQSPSSLSASVGDRVTITCKASQDIHKYIAWYQQKPGQAPRLLIQYTSTLQPGVPSRFSGSGSGTDYTFTISSLQPEDIATYYCLQYDNLRTFGGGTKVEIKR			binds		
H131-G1d/LB-k (antibody, human IgG1, kappa, V domains shown) VH: QDQLVQSGAEVKKPGASVKVSCKASGFNIKDTYIQWVRQAPGQGLEWMGRIDPLRRNTKYREKFEGRVTITADTSTNTAYMELSSLRSEDTAVYYCVRSRTLFDFWGQGTLVTVSS VL: DIQMTQSPSSLSASVGDRVTITCKASQDIHKYIAWYQQKPGQAPRLLIQYTSTLQPGVPSRFSGSGSGTDYTFTISSLQPEDIATYYCLQYDNLRTFGGGTKVEIKR			binds		
H132-G1d/LB-k (antibody, human IgG1, kappa, V domains shown) VH: QDQLVQSGAEVKKPGASVKVSCKASGFNIKDTYIQWVRQAPGQGLEWMGRIDPLRRNTKYREKFEGRVTITADTSTNTAYMELSSLRSEDTAVYYCVRSGRLFDFWGQGTLVTVSS VL: DIQMTQSPSSLSASVGDRVTITCKASQDIHKYIAWYQQKPGQAPRLLIQYTSTLQPGVPSRFSGSGSGTDYTFTISSLQPEDIATYYCLQYDNLRTFGGGTKVEIKR	binds	binds	binds		
H133-G1d/LB-k (antibody, human IgG1, kappa, V domains shown) VH: QDQLVQSGAEVKKPGASVKVSCKASGFNIKDTYIQWVRQAPGQGLEWMGRIDPLRRNTKYREKFEGRVTITADTSTNTAYMELSSLRSEDTAVYYCVRSGTRFDFWGQGTLVTVSS VL: DIQMTQSPSSLSASVGDRVTITCKASQDIHKYIAWYQQKPGQAPRLLIQYTSTLQPGVPSRFSGSGSGTDYTFTISSLQPEDIATYYCLQYDNLRTFGGGTKVEIKR			binds		
H111-G1d/L48-k (antibody, human IgG1, kappa, V domains shown) VH: QDQLVQSGAEVKKPGASVKVSCKASGFNIKDTYIQWVRQAPGQGLEWMGRIDPLRGNTKYREKFEGRVTITADTSTNTAYMELSSLRSEDTAVYYCVRSGTLFDFWGQGTLVTVSS VL: DIQMTQSPSSLSASVGDRVTITCKASQDIHKYIAWYQQKPGQAPRLLIQYTSTLQPGVPSRFSGSGSGTDYTFTISSLQPEDIATYYCLQYDNRRTFGGGTKVEIKR	binds	binds	binds		
H116-G1d/LB-k (antibody, human IgG1, kappa, V domains shown) VH: QDQLVQSGAEVKKPGASVKVSCKASGFNIKDTYIQWVRQAPGQGLEWMGRIDPLRRNTKYREKFEGRVTITADTSTNTAYMELSSLRSEDTAVYYCVRSGTLFDFWGQGTLVTVSS VL: DIQMTQSPSSLSASVGDRVTITCKASQDIHKYIAWYQQKPGQAPRLLIQYTSTLQPGVPSRFSGSGSGTDYTFTISSLQPEDIATYYCLQYDNLRTFGGGTKVEIKR	binds	binds	binds		
H111-G1d/L47-k (antibody, human IgG1, kappa, V domains shown) VH: QDQLVQSGAEVKKPGASVKVSCKASGFNIKDTYIQWVRQAPGQGLEWMGRIDPLRGNTKYREKFEGRVTITADTSTNTAYMELSSLRSEDTAVYYCVRSGTLFDFWGQGTLVTVSS VL: DIQMTQSPSSLSASVGDRVTITCKASQDIHKYIAWYQQKPGQAPRLLIQYTSTLQPGVPSRFSGSGSGTDYTFTISSLQPEDIATYYCLQYDRLRTFGGGTKVEIKR			binds		
H117-G1d/LB-k (antibody, human IgG1, kappa, V domains shown) VH: QDQLVQSGAEVKKPGASVKVSCKASGFNIKDTYIQWVRQAPGQGLEWMGRIDPLRGRTKYREKFEGRVTITADTSTNTAYMELSSLRSEDTAVYYCVRSGTLFDFWGQGTLVTVSS VL: DIQMTQSPSSLSASVGDRVTITCKASQDIHKYIAWYQQKPGQAPRLLIQYTSTLQPGVPSRFSGSGSGTDYTFTISSLQPEDIATYYCLQYDNLRTFGGGTKVEIKR	binds	binds	binds		
H112-G1d/LB-k (antibody, human IgG1, kappa, V domains shown) VH: QDQLVQSGAEVKKPGASVKVSCKASGFNIKDTYIQWVRQAPGQGLEWMGRRDPLRGNTKYREKFEGRVTITADTSTNTAYMELSSLRSEDTAVYYCVRSGTLFDFWGQGTLVTVSS VL: DIQMTQSPSSLSASVGDRVTITCKASQDIHKYIAWYQQKPGQAPRLLIQYTSTLQPGVPSRFSGSGSGTDYTFTISSLQPEDIATYYCLQYDNLRTFGGGTKVEIKR			binds		
H213-G1d/LB-k (antibody, human IgG1, kappa, V domains shown) VH: QDQLVQSGAEVKKPGASVKVSCKASGFNIKDTYIQWVRQAPGQGLEWMGRIDPLRHQTKYREKFEGRVTITADTSTNTAYMELSSLRSEDTAVYYCVRSGREFDFWGQGTLVTVSS VL: DIQMTQSPSSLSASVGDRVTITCKASQDIHKYIAWYQQKPGQAPRLLIQYTSTLQPGVPSRFSGSGSGTDYTFTISSLQPEDIATYYCLQYDNLRTFGGGTKVEIKR	binds	binds		binds	binds
H224-G1d/L53-k (antibody, human IgG1, kappa, V domains shown) VH: QDQLVQSGAEVKNPGASVKVSCKASGFNIKDTYIQWVRQAPGQGLEWMGRIDPLRRQTKYREKFEGRVTITADTSTNTAYMELSSLRAEDTAVYYCVRSGREFDYWGQGTLVTVSS VL: DIQMTQSPSSLSASVGDRVTITCRASQDIHKYIAWYQQKPGQAPRLLIQYTSTLQPGVPSRFSGSGSGTDYTFTISSLQPEDIATYYCLQYDNLRTFGGGTKVEIKR	binds	binds		binds	binds
H119-G1d/LB-k (antibody, human IgG1, kappa, V domains shown) VH: QDQLVQSGAEVKKPGASVKVSCKASGFNIKDTYIQWVRQAPGQGLEWMGRIDPLRGNTRYREKFEGRVTITADTSTNTAYMELSSLRSEDTAVYYCVRSGTLFDFWGQGTLVTVSS VL: DIQMTQSPSSLSASVGDRVTITCKASQDIHKYIAWYQQKPGQAPRLLIQYTSTLQPGVPSRFSGSGSGTDYTFTISSLQPEDIATYYCLQYDNLRTFGGGTKVEIKR			binds		
